PubChem BioAssay AID743454 – Peter MacCallum Cancer Centre – 2014
This is one part, drawn at random, of about 18,000 reagents tested. 450 of them (2.5%) were called active. 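Single biological run; no consistent viability z cut-off exists, so the class columns, not z-scores, define the calls.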 Unmarked entries are inactive.

Purpose: 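Knock-downs lowering viability or raising caspase 3/7 activity in vorinostat-treated resistant cells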 (primary screen)
Cells: human HCT116-VR colon cancer cells, selected for vorinostat resistance
Knock-down reagent: siRNA pool against human genes, 40 nM siRNA pool
Time to read-out: vorinostat for 24 h, read-out about 72 h after transfection
Treatment: vorinostat at 2.5 µM final
Measured: 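Cell viability by CellTiter-Fluor and caspase 3/7 activity by luminescence, each scaled to mock wells per plate, duplicates averaged, then robust z-scored over all plates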
Direction: viability robust z-score: higher = more viable cells than screen typical; caspase robust z-score: higher = more caspase 3/7 activity than screen typical
Hit rule: 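a knock-down is a hit when classed RV1 or RV2 for lowered viability, or CA1 or CA2 for caspase activation; those lethal without drug were dropped; hits were retested singly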

SLITRK1 (SLIT and NTRK like family member 1): viability hit class = no change; caspase hit class = no change; viability robust z-score = -0.2; caspase robust z-score = 1.75
SPANXN5 (SPANX family member N5): viability hit class = no change; caspase hit class = no change; viability robust z-score = -0.73; caspase robust z-score = -1.16
FRMD8 (FERM domain containing 8): viability hit class = no change; caspase hit class = no change; viability robust z-score = 0.9; caspase robust z-score = -0.21
MBD3L2 (methyl-CpG binding domain protein 3 like 2): viability hit class = no change; caspase hit class = no change; viability robust z-score = -0.36; caspase robust z-score = -0.42
GTPBP8 (GTP binding protein 8): viability hit class = no change; caspase hit class = no change; viability robust z-score = 0.62; caspase robust z-score = -0.55
METAP2 (methionyl aminopeptidase 2): viability hit class = no change; caspase hit class = no change; viability robust z-score = 0.02; caspase robust z-score = -0.18
PSPC1 (paraspeckle component 1): viability hit class = no change; caspase hit class = no change; viability robust z-score = -0.26; caspase robust z-score = 1.53
KLHL40 (kelch like family member 40): viability hit class = no change; caspase hit class = no change; viability robust z-score = 0.78; caspase robust z-score = -0.18
ODAD4 (outer dynein arm docking complex subunit 4): viability hit class = no change; caspase hit class = no change; viability robust z-score = -1.57; caspase robust z-score = 1.45
SNORC: viability hit class = no change; caspase hit class = no change; viability robust z-score = 0.74; caspase robust z-score = 1.62
SSX2IP (SSX family member 2 interacting protein): viability hit class = no change; caspase hit class = no change; viability robust z-score = -0.94; caspase robust z-score = 0.88
ADRA2B (adrenoceptor alpha 2B): viability hit class = no change; caspase hit class = no change; viability robust z-score = 0.54; caspase robust z-score = -0.3
